Results as given in publication PMC3887180.
Results are given in words; binding and its absence hold for the method and conditions named. Binding seen in cells or lysates may run through a third protein. Some results given as binding are weak or reduced against the parent protein; the word gives no strength. For part of these data: Where a sequence is shown, tags or fusion partners need not be part of it.

Protein sequences, listed by entry. Tags and fused reporters are not part of them. Lines headed by an entry give the natural chain unless they say otherwise; changes in a name come on top. Residues count along the entry.
UniProt P32121: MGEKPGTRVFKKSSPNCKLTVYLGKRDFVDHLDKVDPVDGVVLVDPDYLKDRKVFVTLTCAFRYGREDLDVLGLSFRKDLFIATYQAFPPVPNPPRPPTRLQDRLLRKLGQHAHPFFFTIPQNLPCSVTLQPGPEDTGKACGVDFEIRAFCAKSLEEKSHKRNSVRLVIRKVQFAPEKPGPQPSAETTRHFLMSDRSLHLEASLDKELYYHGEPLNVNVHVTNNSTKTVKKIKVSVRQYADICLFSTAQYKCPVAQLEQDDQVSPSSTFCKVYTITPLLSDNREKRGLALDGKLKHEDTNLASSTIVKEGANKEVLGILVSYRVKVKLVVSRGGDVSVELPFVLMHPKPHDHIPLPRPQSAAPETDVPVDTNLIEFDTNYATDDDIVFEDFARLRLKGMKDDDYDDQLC
FLAG-β-arrestin2 (amino acids 163–300): residues 163-300 of P32121
UniProt Q9BTU6: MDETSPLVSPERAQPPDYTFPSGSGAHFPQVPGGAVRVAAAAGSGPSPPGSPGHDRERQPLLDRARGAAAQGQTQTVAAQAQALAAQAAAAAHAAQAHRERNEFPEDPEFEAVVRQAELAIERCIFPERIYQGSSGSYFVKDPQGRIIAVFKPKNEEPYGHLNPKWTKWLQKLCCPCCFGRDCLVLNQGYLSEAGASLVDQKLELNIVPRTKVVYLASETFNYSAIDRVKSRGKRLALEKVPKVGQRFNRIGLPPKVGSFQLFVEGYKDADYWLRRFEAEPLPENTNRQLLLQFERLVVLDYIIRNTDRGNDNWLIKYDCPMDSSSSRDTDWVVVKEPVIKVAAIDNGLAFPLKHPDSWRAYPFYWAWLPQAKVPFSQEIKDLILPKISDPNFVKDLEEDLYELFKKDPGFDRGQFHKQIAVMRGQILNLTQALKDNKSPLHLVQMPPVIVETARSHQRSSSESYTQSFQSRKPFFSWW
UniProt O14986: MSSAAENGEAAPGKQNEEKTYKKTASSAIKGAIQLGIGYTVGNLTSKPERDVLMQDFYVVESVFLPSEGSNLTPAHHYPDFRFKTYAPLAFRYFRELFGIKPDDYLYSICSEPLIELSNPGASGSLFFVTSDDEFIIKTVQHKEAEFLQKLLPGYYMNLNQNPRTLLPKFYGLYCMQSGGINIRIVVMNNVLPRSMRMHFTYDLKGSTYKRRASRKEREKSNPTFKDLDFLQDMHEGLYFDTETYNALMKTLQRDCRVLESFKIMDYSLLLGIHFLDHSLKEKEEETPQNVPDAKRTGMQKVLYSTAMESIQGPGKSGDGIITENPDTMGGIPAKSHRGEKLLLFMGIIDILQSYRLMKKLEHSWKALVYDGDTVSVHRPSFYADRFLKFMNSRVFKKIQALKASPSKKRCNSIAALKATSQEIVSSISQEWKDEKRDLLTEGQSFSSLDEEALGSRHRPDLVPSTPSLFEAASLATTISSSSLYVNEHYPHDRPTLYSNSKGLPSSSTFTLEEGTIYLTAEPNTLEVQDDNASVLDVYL

How the values were obtained:
FLAG-β-arrestin2 [1] = target: FLAG-β-arrestin2 (UniProt P32121); assay: co-IP; overexpressed tagged proteins in HEK293T; Nonidet P-40 lysis buffer (50 mM Tris pH 7.4, 150 mM NaCl, 1 mM EDTA, 0.5% Nonidet P-40), 4 °C, anti-tag antibody and protein G-Sepharose overnight, six washes; Western blot; in Fig. 7A, B with PI4KIIα siRNA or overexpressed PI4KIIα or PIP5KIβ
FLAG-β-arrestin2 [2] = target: FLAG-β-arrestin2 (UniProt P32121); assay: co-IP; overexpressed tagged proteins in HEK293T with or without co-expressed Dvl1, Dvl2 or Dvl3 as competitor; Nonidet P-40 lysis buffer, 4 °C, anti-tag immunoprecipitation; Western blot
FLAG-β-arrestin2 [3] = target: FLAG-β-arrestin2 (UniProt P32121); assay: as above; remark: listed apart in the source
HA-β-arrestin2 = HA-β-arrestin2 (UniProt P32121); assay: as above
[4] = target: FLAG-β-arrestin2 (amino acids 163–300) (UniProt P32121); assay: co-IP; overexpressed tagged proteins in HEK293T; Nonidet P-40 lysis buffer (50 mM Tris pH 7.4, 150 mM NaCl, 1 mM EDTA, 0.5% Nonidet P-40), 4 °C, anti-tag antibody and protein G-Sepharose overnight, six washes; Western blot; in Fig. 7A, B with PI4KIIα siRNA or overexpressed PI4KIIα or PIP5KIβ

| binding (FLAG-β-arrestin2 [1]) | binding (FLAG-β-arrestin2 [3]) | binding (HA-β-arrestin2) | binding [4] | Molecule | binding (FLAG-β-arrestin2 [2]) |
| --- | --- | --- | --- | --- | --- |
| binds | binds |  |  | HA-PI4KIIα (from UniProt Q9BTU6 1-479) (enzyme) | no binding (condition: with overexpressed Dvl3) |
| binds | binds |  |  | HA-PIP5KIβ (from UniProt O14986 1-540) (enzyme) | no binding (condition: with overexpressed Dvl3) |

Second part, the molecule before the results:

| Molecule | binding (FLAG-β-arrestin2 [1]) | binding (FLAG-β-arrestin2 [3]) | binding (HA-β-arrestin2) | binding [4] | binding (FLAG-β-arrestin2 [2]) |
| --- | --- | --- | --- | --- | --- |
| FLAG-hDvl1 (protein, UniProt O14640 1-695) MAETKIIYHMDEEETPYLVKLPVAPERVTLADFKNVLSNRPVHAYKFFFKSMDQDFGVVKEEIFDDNAKLPCFNGRVVSWLVLAEGAHSDAGSQGTDSHTDLPPPLERTGGIGDSRPPSFHPNVASSRDGMDNETGTESMVSHRRERARRRNREEAARTNGHPRGDRRRDVGLPPDSASTALSSELESSSFVDSDEDGSTSRLSSSTEQSTSSRLIRKHKRRRRKQRLRQADRASSFSSITDSTMSLNIVTVTLNMERHHFLGISIVGQSNDRGDGGIYIGSIMKGGAVAADGRIEPGDMLLQVNDVNFENMSNDDAVRVLREIVSQTGPISLTVAKCWDPTPRSYFTVPRADPVRPIDPAAWLSHTAALTGALPRYGTSPCSSAVTRTSSSSLTSSVPGAPQLEEAPLTVKSDMSAVVRVMQLPDSGLEIRDRMWLKITIANAVIGADVVDWLYTHVEGFKERREARKYASSLLKHGFLRHTVNKITFSEQCYYVFGDLCSNLATLNLNSGSSGTSDQDTLAPLPHPAAPWPLGQGYPYQYPGPPPCFPPAYQDPGFSYGSGSTGSQQSEGSKSSGSTRSSRRAPGREKERRAAGAGGSGSESDHTAPSGVGSSWRERPAGQLSRGSSPRSQASATAPGLPPPHPTTKAYTVVGGPPGGPPVRELAAVPPELTGSRQSFQKAMGNPCEFFVDIM |  |  | binds |  |  |
| EGFP-mDvl2 (protein, UniProt Q60838 1-736) MAGSSAGGGGVGETKVIYHLDEEETPYLVKIPVPAERITLGDFKSVLQRPAGAKYFFKSMDQDFGVVKEEISDDNARLPCFNGRVVSWLVSSDTPQPEVAPPAHESRTELVPPPPPLPPLPPERTSGIGDSRPPSFHPNVSSSHENLEPETETESVVSLRRDRPRRRDSSEHGAGGHRPGGPSRLERHLAGYESSSTLMTSELESTSLGDSDEDDTMSRFSSSTEQSSASRLLKRHRRRRKQRPPRMERTSSFSSVTDSTMSLNIITVTLNMEKYNFLGISIVGQSNERGDGGIYIGSIMKGGAVAADGRIEPGDMLLQVNDMNFENMSNDDAVRVLRDIVHKPGPIVLTVAKCWDPSPQAYFTLPRNEPIQPIDPAAWVSHSAALTGAFPAYPGSSSMSTITSGSSLPDGCEGRGLSVHMDMASVTKAMAAPESGLEVRDRMWLKITIPNAFLGSDVVDWLYHHVEGFPERREARKYASGLLKAGLIRHTVNKITFSEQCYYVFGDLSGGCESYLVNLSLNDNDGSSGASDQDTLAPLPGATPWPLLPTFSYQYPAPHPYSPQPPPYHELSSYTYGGGSASSQHSEGSRSSGSTRSDGGAGRTGRPEERAPESKSGSGSESELSSRGGSLRRGGEPGGTGDGGPPPSRGSTGAPPNLRALPGLHPYGAPSGMALPYNPMMVVMMPPPPPPVSTAVQPPGAPPVRDLGSVPPELTASRQSFHMAMGNPSEFFVDVM |  |  | binds |  |  |
| EGFP-Amer1 (amino acids 942–1135) (domain or fragment, UniProt Q5JTC6 942-1135) RDSPLSLYTEPPGAYDWPAWAPCPLPVGPGPAWISPNQLDRPSSQSPYRQATCCIPPMTMSISLSVPESRAPGESGPQLARPSHLHLPMGPCYNLQPQASQSMRARPRDVLLPVDEPSCSSSSGGFSPSPLPQAKPVGITHGIPQLPRVRPEHPQPQPTHYGPSSLDLSKERAEQGASLATSYSSTAMNGNLAK |  |  |  | binds |  |
